The chains are these.
B1: 14-3-3-like protein PAR-5 (protein, UniProt P41932 1-248)
chain: MSDTVEELVQRAKLAEQAERYDDMAAAMKKVTEQGQELSNEERNLLSVAYKNVVGARRSSWRVISSIEQKTEGSEKKQQLAKEYRVKVEQELNDICQDVLKLLDEFLIVKAGAAESKVFYLKMKGDYYRYLAEVASEDRAAVVEKSQKAYQEALDIAKDKMQPTHPIRLGLALNFSVFYYEILNTPEHACQLAKQAFDDAIAELDTLNEDSYKDSTLIMQLLRDNLTLWTSDVGAEDQEQEGNQEAGN
B2: mitochondrial Adenine Nucleotide Translocator ANT-1.1 (protein, UniProt O45865 1-300)
chain: MSKEKSFDTKKFLIDLASGGTAAAVSKTAVAPIERVKLLLQVQDASKAIAVDKRYKGIMDVLIRVPKEQGVAALWRGNLANVIRYFPTQAMNFAFKDTYKAIFLEGLDKKKDFWKFFAGNLASGGAAGATSLCFVYPLDFARTRLAADIGKANDREFKGLADCLIKIVKSDGPIGLYRGFFVSVQGIIIYRAAYFGMFDTAKMVFASDGQKLNFFAAWGIAQVVTVGSGILSYPWDTVRRRMMMQSGRKDILYKNTLDCAKKIIQNEGMSAMFKGALSNVFRGTGGALVLAIYDEIQKFL
B3: adenosine triphosphate (ATP)-Citrate Lyase ACLY-1 (protein, UniProt P53585 1-1106)
chain: MSAKAVSELSGKEVLYKYFEPSGLLSAPHAFHVKAGENFDEIANKYEWLARDNKGVIKPDQLIKRRGKLGLVKIGTPQELKAWFEKTGDSYVRVGQTEGRLHTFIVEPFCAHTEKDEMYIAIYSERFRDVIMFYEQGGVDIGDVEEKARTVSVPVQLNENAMTPSDEELTTLLGPLKDSDIVRRFVVELYKAYKDLHFTYLEINPFVLLNNQIHVLDLAARLDETANFLCADKWKSRLTPYGGPNHVEFPAPFGRDLTSEEQYISEMDAKTGASLKLTILNRKGRVWTMVAGGGASVVFTDTVCDLGGASELANYGEYSGDPSESQTYEYAKTLLSVMTEGTPRPDGKVLIIGGSIANFTNVAKTFGGIVRAFETFVSKLKEHKVTIFVRRGGPNYQEGLRRIKDAATKLELPIHVFGPETHMTAIVGAALGVKPMPTVPTAPQTTGQFLLSPERNTGGTERAPPSPAANATPTEHPLTTAQQNKLKSFRGLFEDDTKAIIWGQQAKAIQGMLDFDYVCRRSSPSVVASTYPFTGDNKQKYYFGQKEILIPAYKSMAKAFATHPDASIMVTFASMRSVFETVLEALEFPQIKVIAIIAEGVPENQTRKLLKIAHDRGVTLVGPATVGGIKPGCFKIGNTGGMMDNILASKLYRPGSVAYVSRSGGMSNELNNIISQNTNGVYEGIAIGGDRYPGSTYTDHVIRYQNDDRVKMIVLLGEVGGVEEYKIVDLLKQKKVTKPLVAWCIGTCADHITSEVQFGHAGASANALGETAACKNAALRASGALVPESFDDLGNKIRQTYDELVSQQIIVPQPEVPPPAVPMDYAWARELGLIRKPASFMTSICDERGEELNYAGVPITKVLESDMGIGGVLGLLWFQKRLPPHANKFIEICLMLTADHGPAVSGAHNTIVCARAGKDLISSLTSGLLTIGDRFGGALDGAARQFSEAFDQGWSANQFVSEMRKKGKHIMGIGHRVKSINNPDKRVEILKRFAMDKKEFAQETPLFEYALEVEKITTAKKPNLILNVDGAIAILFVDILRHSGMFTKQEAEETIEIGSLNGLFVLGRSIGFIGHYLDQSRLKQGLYRHPWDDISYIMPESNLVKF
B4: Voltage Dependent Anion Channel VDAC-1 (protein, UniProt Q21752 1-283)
chain: MAPPTFADLGKSAKDLFNKGYNFGFLKIDSTTRAGDNKEVEFKSAASHNIGSGKLGGNLDVKYKIPQYGITLTEKWNTENQLGTVIEVNEQFGRGLKVTLDSLYAPHAGKRSGKVKLDWALPTARVTADVGVTSAPVINAAGVFSRDGWLIGAAATFDSSSNKLAATSLAFGHSTPQYTLHSFVINSTDFGASLYHKVASNVEVGTQLGWKVGGNGADYALATKYAPSRDLTVRAKVNSSSQVAVAATHSLSPALKLTLSTQFNLAANDAHKFGLGLEFDPSN
B5: 14-3-3-like protein FTT-2 (protein, UniProt Q20655 1-248)
chain: MSDGKEELVNRAKLAEQAERYDDMAASMKKVTELGAELSNEERNLLSVAYKNVVGARRSSWRVISSIEQKTEGSEKKQQMAKEYREKVEKELRDICQDVLNLLDKFLIPKAGAAESKVFYLKMKGDYYRYLAEVASGDDRNSVVEKSQQSYQEAFDIAKDKMQPTHPIRLGLALNFSVFFYEILNAPDKACQLAKQAFDDAIAELDTLNEDSYKDSTLIMQLLRDNLTLWTSDAATDDTDANETEGGN

Sequences of proteins named here, by UniProt entry; tags and fusion partners are left off.
UniProt Q9XW92: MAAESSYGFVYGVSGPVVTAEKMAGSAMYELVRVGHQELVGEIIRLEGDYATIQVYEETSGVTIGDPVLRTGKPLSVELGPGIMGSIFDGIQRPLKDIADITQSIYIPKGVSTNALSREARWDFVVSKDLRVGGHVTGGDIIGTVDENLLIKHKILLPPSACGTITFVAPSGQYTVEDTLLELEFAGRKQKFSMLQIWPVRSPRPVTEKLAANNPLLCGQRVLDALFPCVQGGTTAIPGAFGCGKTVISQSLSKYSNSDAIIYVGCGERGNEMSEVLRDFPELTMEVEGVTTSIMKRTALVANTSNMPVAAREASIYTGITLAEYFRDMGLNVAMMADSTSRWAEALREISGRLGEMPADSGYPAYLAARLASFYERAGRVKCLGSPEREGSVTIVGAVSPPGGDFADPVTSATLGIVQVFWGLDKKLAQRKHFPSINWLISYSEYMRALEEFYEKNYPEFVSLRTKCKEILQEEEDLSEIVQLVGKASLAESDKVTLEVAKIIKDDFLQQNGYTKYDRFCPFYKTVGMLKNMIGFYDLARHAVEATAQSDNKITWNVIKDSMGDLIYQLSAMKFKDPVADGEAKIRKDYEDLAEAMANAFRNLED
UniProt Q19626: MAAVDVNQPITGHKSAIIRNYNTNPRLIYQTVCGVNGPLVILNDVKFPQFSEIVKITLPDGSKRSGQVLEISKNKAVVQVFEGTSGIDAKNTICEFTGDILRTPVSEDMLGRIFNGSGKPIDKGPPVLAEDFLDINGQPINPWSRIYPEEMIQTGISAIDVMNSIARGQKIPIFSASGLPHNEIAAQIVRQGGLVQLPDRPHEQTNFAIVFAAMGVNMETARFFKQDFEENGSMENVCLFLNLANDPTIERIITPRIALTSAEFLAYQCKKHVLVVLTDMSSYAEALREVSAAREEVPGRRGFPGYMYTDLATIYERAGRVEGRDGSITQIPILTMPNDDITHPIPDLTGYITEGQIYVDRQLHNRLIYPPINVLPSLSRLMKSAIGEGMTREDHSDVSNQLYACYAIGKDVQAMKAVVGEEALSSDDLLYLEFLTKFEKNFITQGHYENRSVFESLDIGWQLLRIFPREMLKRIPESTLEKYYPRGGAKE
UniProt Q95X44: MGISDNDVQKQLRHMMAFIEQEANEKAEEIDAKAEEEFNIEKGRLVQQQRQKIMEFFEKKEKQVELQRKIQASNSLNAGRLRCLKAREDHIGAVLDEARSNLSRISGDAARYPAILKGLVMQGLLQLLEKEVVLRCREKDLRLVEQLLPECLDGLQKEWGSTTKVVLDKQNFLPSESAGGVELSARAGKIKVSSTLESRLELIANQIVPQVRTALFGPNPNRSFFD
UniProt P09446: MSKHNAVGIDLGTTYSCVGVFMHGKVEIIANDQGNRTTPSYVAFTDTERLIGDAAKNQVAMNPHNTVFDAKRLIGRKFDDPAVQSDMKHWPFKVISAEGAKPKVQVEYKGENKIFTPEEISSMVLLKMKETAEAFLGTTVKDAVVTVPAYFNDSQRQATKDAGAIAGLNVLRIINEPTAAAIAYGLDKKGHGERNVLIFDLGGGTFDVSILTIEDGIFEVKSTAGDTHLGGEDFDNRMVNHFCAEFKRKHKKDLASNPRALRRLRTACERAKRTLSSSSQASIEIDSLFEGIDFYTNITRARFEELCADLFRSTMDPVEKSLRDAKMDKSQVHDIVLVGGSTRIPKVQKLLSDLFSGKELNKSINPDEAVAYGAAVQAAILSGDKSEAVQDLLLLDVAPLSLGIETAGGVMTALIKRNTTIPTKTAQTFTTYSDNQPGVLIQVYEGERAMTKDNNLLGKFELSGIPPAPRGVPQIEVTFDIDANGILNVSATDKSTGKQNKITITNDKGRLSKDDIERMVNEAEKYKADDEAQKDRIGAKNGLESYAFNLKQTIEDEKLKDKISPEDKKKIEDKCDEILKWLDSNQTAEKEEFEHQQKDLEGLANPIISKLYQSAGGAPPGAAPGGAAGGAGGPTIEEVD

These are yes or no findings as the source states them, for the method shown. In cells and extracts the contact can be indirect. These calls come from enrichment with a bait or labelling near it, and not all partners need be listed. Sequences can lack the tags named with a protein.

The test deals with T1, mCherry-tagged C. elegans Parkin – Parkinson's Disease Related 1 (PDR-1) (C. elegans) (UniProt Q9XUS3).
T1 sequence: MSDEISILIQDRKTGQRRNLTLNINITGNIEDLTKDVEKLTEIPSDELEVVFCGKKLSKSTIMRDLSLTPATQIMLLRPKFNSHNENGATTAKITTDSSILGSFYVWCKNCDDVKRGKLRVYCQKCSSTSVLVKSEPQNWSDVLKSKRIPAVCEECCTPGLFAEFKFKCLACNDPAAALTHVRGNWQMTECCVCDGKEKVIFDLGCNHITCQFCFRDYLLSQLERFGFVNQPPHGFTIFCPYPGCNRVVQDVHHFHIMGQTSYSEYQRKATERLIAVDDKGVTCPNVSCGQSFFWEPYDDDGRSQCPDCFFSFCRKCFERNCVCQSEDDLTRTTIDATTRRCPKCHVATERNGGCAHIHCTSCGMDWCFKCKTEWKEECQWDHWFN
Briefly: affinity purification with mass spectrometry; mCherry::PDR-1 precipitated with RFP-trap magnetic beads (1 h, room temperature) from whole-animal extracts sonicated in M9 buffer and precleaned on control magnetic beads; five washes with M9; eluate run on SDS-PAGE, Coomassie-stained bands digested in gel and analysed by LC-MS/MS; extracts of the parental strain dmaIs48 and of dmaIs48; rde-1(dma341).
“Vacuolar ATPase subunit VHA-13 (from UniProt Q9XW92 1-606)”: the binding result is recorded as “binds”.
The result for ATP synthase subunit ATP-2 reads “binds”.
The result for “Vacuolar ATPase subunit VHA-12 (from UniProt Q19626 1-491)” reads “binds”; that for “Vacuolar ATPase subunit VHA-8 (from UniProt Q95X44 1-226)”, “binds”.
To “Heat Shock 70kDa HSP-1 (from UniProt P09446 1-640)” belongs “binds”.
As for ATP synthase subunit ATP-1, the binding entry is on record as “binds”.
To B1 belongs “binds”; to B2, “binds”.
The result for B3 reads “binds”; that for B4, “binds”.
The result for B5 reads “binds”.

The values above are taken from PMC10556562.
